The source of these data is PubChem BioAssay AID2685 (National Center for Advancing Translational Sciences (NCATS), 2010).

The test is described as follows: qHTS Assay for Lipid Storage Modulators in Drosophila S3 Cells.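 On cell number change: cells counted by Cell Tracker Red CMTPX staining in the red channel.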 As to conditions: BODIPY lipid droplet fluorescence, 18-24 h; for cell number change: measured here: cell count max response, cells fed with added oleic acid. The procedure, abridged: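 Laser-scanning cytometry quantifies lipid droplet accumulation (500–530 nm total intensity; droplet/cell object ratio) in oleic acid-fed (400 uM added) Drosophila S3 cells treated with a concentration series. 20 uM Triacsin C defined 100% inhibition.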
(In qHTS, concentration-response curves come from the screen itself.)

Where [1] appears, read: measured here: lipid fluorescence (Fed channel) AC50, cells fed with added oleic acid.
[2] abbreviates: measured here: cell number channel AC50, cells fed with added oleic acid.

By AC50 is commonly meant the concentration at which the activity in the assay is half-maximal. The low end stands for greater potency, the high end for weaker potency.

Some of the results follow. These are further read-outs of the screen, such as a control signal, another cell line or another target. No call is given for them. The list favours compounds with an active or inconclusive main result. Potencies come from curve fits of mixed quality, noted in brackets.

On to `O=C(CN1CCN(Cc2ccccc2Cl)CC1)N/N=C/c1ccco1`, for which the cell number change amounted to 1.81%.

In the case of `CCOC(=O)N1CCN(C(=O)CSc2nnc(-c3cccc(OC)c3)o2)CC1`, the cell number change came to 14.3%. The AC50 under setting [1] is 5.17 µM [falling, single point].

`O=C(c1ccc(NC2=NC3CS(=O)(=O)CC3S2)cc1)N1CCN(c2ccc(F)cc2)CC1` (stereo unspecified): the cell number change is 8.43%. In addition, under setting [1], the AC50 is 0.731 µM [falling, full curve].

On to `COc1cc(/C=C/C(=O)OCC(=O)N(C)CC(=O)Nc2ccc(F)cc2)ccc1OC(F)F`, for which the cell number change came out at 17.3%. Moreover, under setting [1], the AC50 was 0.184 µM [rising, full curve, poor fit].

Consider `Cc1cc(N/N=C(/CCC(=O)O)C(=O)O)nc2ccccc12`, for which the cell number change is -100%. Moreover, the AC50 under setting [2] was 29.1 µM [falling, partial curve, poor fit].

Consider `O=C(Nc1nnc(C2=COCCO2)o1)c1cccc(C(F)(F)F)c1`, for which the cell number change is -17.4%. Under setting [1], the AC50 is 29.1 µM [falling, single point].

For the molecule `COc1ccc(OCc2nnc3n2N=C(c2ccc(Br)cc2)CS3)cc1`, the cell number change was -7.69%.

Turning to `CCOC(=O)N1CCN(c2c(N3CCN(c4cccc(C)c4C)CC3)c(=O)c2=O)CC1`, the cell number change is -6.74%. For the same molecule, the AC50 under setting [1] was 2.06 µM [falling, partial curve, poor fit].

For `Cc1cc(C(=O)OCC(=O)Nc2c(Cl)cccc2C(F)(F)F)c(C)o1`, the cell number change was -5.53%. Also, the AC50 under setting [1] is 29.1 µM [rising, partial curve, poor fit].

In the case of `COc1cccc(/C=C/C(=O)N2CC(C)OC(C)C2)c1OC` (stereo unspecified), the cell number change was -9.68%. In addition, under setting [1], the concentration at half-maximal activity (AC50) was 0.164 µM [falling, full curve].

Consider `CCCCNC(=O)c1nn2cc(Br)cnc2c1Br`, for which the cell number change was found to be 32.8%. Moreover, under setting [2], the AC50 was 29.1 µM [rising, single point].

Regarding `O=C(O)CCCN1C(=O)/C(=C\c2ccccc2OCc2ccccc2)SC1=S`, the cell number change was 15.4%. The AC50 under setting [2] was 2.91 µM [rising, single point].

For `COCC(=O)N1CCC(Oc2ccc(C(=O)N(C)Cc3nccs3)cc2)CC1`, the cell number change turned out to be 6.07%. In addition, the AC50 under setting [1] was 14.6 µM [rising, partial curve].

For the molecule `COc1ccc(Cn2nnnc2CN2CCN(c3ccc(OC)cc3)CC2)cc1`, the cell number change amounted to 2.26%. The AC50 under setting [1] was 2.06 µM [rising, partial curve].

For `C/C(=N/NC(=O)CN1CCN(S(=O)(=O)c2ccc(Br)cc2)CC1)c1cccnc1`, the cell number change came to 8.89%. Further, the AC50 under setting [2] is 6.51 µM [rising, single point]. Under setting [1], the AC50 is 1.64 µM [rising, partial curve, poor fit].

With `CCOC(=O)N1CCN(C(=O)CCc2ccc(S(=O)(=O)NCCc3ccccc3)cc2)CC1`, the cell number change is -34%. In addition, the concentration at half-maximal activity (AC50) under setting [2] was 14.6 µM [falling, partial curve, poor fit]. Further, under setting [1], the AC50 is 0.82 µM [rising, partial curve].

As for `COc1cccc(NC(=O)c2cc(OC)c(OC)c(OC)c2Br)c1`, the cell number change was 8.91%. Also, the AC50 under setting [1] is 1.64 µM [rising, partial curve].

Turning to `CCC(C)NC(=O)Cc1c(C)c2cc3c(cc2oc1=O)OC(C)(C)CC3` (stereo unspecified), the AC50 under setting [2] is 0.164 µM [rising, full curve, poor fit].

On to `C=CCOc1c(Br)cc(/C=C2/C(=O)ON=C2C)cc1OC`, for which the cell number change was determined as 22.7%.

In the case of `CC(C)Oc1ccc(C(=O)Nc2nc3ccccc3[nH]2)cc1`, the cell number change was -10.3%. In addition, the AC50 under setting [2] was 0.291 µM [falling, partial curve, poor fit].

Consider `CSc1ccc(CCNC(=O)c2cc(-c3ccccc3)c(N3CCOCC3)s2)cc1`, for which the cell number change came to 16.9%. Further, the AC50 under setting [1] is 29.1 µM [rising, single point].

With `O=C1CN(c2nc(-c3cccs3)nc3sc4c(c23)CCCC4)CCN1`, the AC50 under setting [1] is 0.731 µM [falling, full curve].

With `Cc1cc(C(=O)CN2C(=O)NC3(CCCCC3)C2=O)c(C)n1Cc1ccco1`, the cell number change is 19.8%. Besides, under setting [1], the AC50 is 14.6 µM [falling, partial curve].

In the case of `Cc1nn(CC(=O)NC2CCCC2)c(C)c1[N+](=O)[O-]`, the cell number change was determined as 13%. Moreover, under setting [1], the AC50 is 32.6 µM [rising, single point].

Regarding `Cc1ccc(C(=O)c2c(C)oc3c2C(=O)C(=O)c2ccccc2-3)cc1`, the cell number change was -86.6%.

Take `O=C(c1ccc(Cl)c(S(=O)(=O)N2CCCC2)c1)N1CCCCC1`: the cell number change turned out to be 31%. Further, under setting [2], the AC50 is 11.2 µM [rising, partial curve, poor fit].

Take `Ic1ccc(N2CCN(Cc3c[nH]c4ncccc34)CC2)cc1`: the cell number change was -55.6%. For the same molecule, the AC50 under setting [2] was 29.1 µM [falling, single point]. For the same molecule, the AC50 under setting [1] is 29.1 µM [falling, single point].

For the molecule `Cc1ccc(C2=N/C(=C\c3ccc(F)cc3)C(=O)N2)cc1`, the cell number change is -26.2%. The AC50 under setting [1] was 29.1 µM [falling, single point].

For the molecule `CCOc1ncccc1C(=O)OCC(=O)NCc1ccc2c(c1)OCO2`, the AC50 was 0.517 µM [rising, full curve, poor fit] under setting [2] and 29.1 µM [rising, single point] under setting [1].

`CC1=NN(c2ccc(Cl)cc2)C(=O)C1C(c1cccc(O)c1)c1c(C)[nH]n(-c2ccc(Cl)cc2)c1=O` (stereo unspecified): the cell number change was found to be 8.53%.

On to `Cc1ccc(-n2c(SCC(=O)NCC3CCCO3)nnc2-c2ccoc2C)cc1` (stereo unspecified), for which the cell number change came to 0.832%. Besides, the AC50 under setting [1] is 29.1 µM [falling, single point].

`COC(=O)c1cc(=O)c2c(C)nc(C(Cl)(Cl)Cl)nc2[nH]1`: the cell number change is 61.8%. Besides, the AC50 under setting [1] is 13 µM [rising, partial curve].

As for `O=[N+]([O-])c1cc(S(=O)(=O)O)cc([N+](=O)[O-])c1NN(c1ccccc1)c1ccccc1`, the cell number change was 7.44%. The AC50 under setting [1] was 5.17 µM [rising, partial curve].

Consider `Cc1ccc(S(=O)(=O)/C(C#N)=C/c2c(N3CCC(C(N)=O)CC3)nc3c(C)cccn3c2=O)cc1`, for which the cell number change was determined as 25.8%. Also, the AC50 under setting [1] is 0.13 µM [rising, full curve, poor fit].

In the case of `O=C(/C=C/c1ccccc1)N1CCN(CC(O)COc2ccccc2)CC1` (stereo unspecified), the cell number change came to 46.8%. Besides, the AC50 under setting [2] is 5.8 µM [rising, partial curve]. Further, the AC50 under setting [1] was 5.8 µM [rising, single point].

Turning to `Cc1ccsc1/C=N/NC(=O)CC(=O)NCC(C)C`, the cell number change was 22.9%. Moreover, under setting [1], the AC50 was 16.4 µM [rising, partial curve, poor fit].

Regarding `COc1ccc(C(OC(=O)c2ccco2)C(=O)NC2CCCCC2)cc1OC` (stereo unspecified), the cell number change is -14.7%. In addition, the AC50 under setting [1] is 0.731 µM [falling, full curve].

With `COc1ccccc1-c1ccc(=O)n(CC(=O)NC(C)(C)C)n1`, the cell number change was found to be 12.3%. In addition, the AC50 under setting [1] is 29.1 µM [falling, single point].

In the case of `COc1ccc(NC(=O)C2CCCN(C(=O)Nc3cccc(OC)c3)C2)cc1` (stereo unspecified), the cell number change worked out at 14.3%. Moreover, under setting [1], the AC50 is 29.1 µM [rising, partial curve, poor fit].

With `COc1ccc(CCC(=O)NNC(=O)Nc2ccccc2Cl)cc1`, the cell number change is 15.5%. For the same molecule, the AC50 under setting [1] was 23.1 µM [rising, single point].

Take `CCc1ccc(N(CC(=O)Nc2ccc(OC)cc2OC)S(C)(=O)=O)cc1`: the cell number change was 1.05%. In addition, under setting [1], the AC50 is 2.59 µM [rising, single point].

Regarding `Cc1cc(C)cc(NS(=O)(=O)c2c(C)[nH]c(=O)[nH]c2=O)c1`, the cell number change is -37.3%. The AC50 under setting [2] is 1.64 µM [falling, partial curve].

With `CN(C)c1ccc(/C=C(\NC(=O)c2ccccc2)C(=O)NCCCn2ccnc2)cc1`, the cell number change was -3.97%.

Take `Cc1cccc(NC(=O)Nc2ccc(Oc3c(F)c(F)c(F)c(F)c3F)cc2)c1`: the cell number change was -50.5%. In addition, the AC50 under setting [2] was 8.2 µM [falling, partial curve]. For the same molecule, the AC50 under setting [1] was 13 µM [falling, partial curve].

Consider `O=C(NC(=S)Nc1cc(C(F)(F)F)ccc1N1CCOCC1)c1ccco1`, for which the cell number change is -10.5%. For the same molecule, under setting [1], the AC50 was 0.0058 µM [falling, full curve, poor fit].

Consider `O=C(Nc1ccccc1N1CCN(C(=O)c2ccccc2)CC1)c1ccc2c(c1)OCO2`, for which the cell number change was 1.88%. In addition, the AC50 under setting [2] is 1.03 µM [falling, full curve]. Under setting [1], the AC50 is 0.82 µM [falling, full curve].

As to `COc1ccc(OC)c(S(=O)(=O)Nc2ccc(-c3ccc4nnc(C)n4n3)cc2)c1`, the cell number change is -49.6%. For the same molecule, under setting [2], the AC50 was 23.1 µM [falling, single point]. For the same molecule, under setting [1], the AC50 was 23.1 µM [falling, single point].

Take `O=C(N/N=C\c1cc([N+](=O)[O-])ccc1N1CCOCC1)c1ccccn1`: the cell number change is -4.96%. For the same molecule, the AC50 under setting [1] was 8.91 µM [falling, partial curve].

For the molecule `COc1ccc(C(C[N+](=O)[O-])c2c(-c3ccccc3)cc3ccccn23)cc1OC` (stereo unspecified), the cell number change was 88%. Besides, the AC50 under setting [2] is 7.31 µM [rising, partial curve]. Also, under setting [1], the AC50 was 0.00517 µM [falling, full curve, poor fit].

As for `CC1CC1c1ccc(/C=C(\C#N)C(=O)Nc2cccc(Cl)c2Cl)o1` (stereo unspecified), the cell number change came out at 0.626%. Moreover, the AC50 under setting [2] was 6.51 µM [falling, single point]. Under setting [1], the AC50 was 6.51 µM [falling, single point].

`COc1ccccc1-c1sc2ccccc2c1-c1ccc2c(c1)OCO2`: the cell number change is 11.3%. For the same molecule, the AC50 under setting [1] was 29.1 µM [rising, single point].

As to `Oc1ccc(/C=N/N(c2ccccc2)c2ccccc2)c(O)c1O`, the cell number change was -25.6%.

In the case of `CCC(C)(C)NC(=O)C(c1ccc(OC)cc1)N(C(=O)CCC(=O)Nc1cc(C)on1)c1cccc(OC)c1` (stereo unspecified), the cell number change is -2.92%.

Regarding `COc1ccccc1-c1c(C)nn2c(-c3ccccc3)cc(C)nc12`, the cell number change was found to be 41.7%. Besides, the AC50 under setting [2] was 29.1 µM [rising, single point]. Moreover, the AC50 under setting [1] is 0.517 µM [rising, full curve].

On to `Cc1occc1-c1nnc(SCC(=O)NCC2CCCO2)n1C` (stereo unspecified), for which the cell number change is -21.9%. Further, the AC50 under setting [2] was 4.61 µM [falling, single point]. The AC50 under setting [1] was 3.26 µM [falling, full curve].

As for `C=CCn1c(SCC(=O)N2CCOCC2)nc2scc(-c3ccco3)c2c1=O`, the cell number change was -35.2%. Further, under setting [2], the AC50 was 11.6 µM [falling, partial curve]. Moreover, under setting [1], the AC50 is 18.4 µM [falling, partial curve, poor fit].

Consider `O=C(CSc1nnnn1-c1ccccc1)Nc1ccccc1`, for which the cell number change worked out at 16.6%. The AC50 under setting [1] is 6.51 µM [rising, single point].
